In paper PMC4728290 one finds binding data, which are given here for one substance.

Amino acid sequences for entries named in this document (tags omitted). Residues count along the entry.
UniProt P06213, residues 28-1382: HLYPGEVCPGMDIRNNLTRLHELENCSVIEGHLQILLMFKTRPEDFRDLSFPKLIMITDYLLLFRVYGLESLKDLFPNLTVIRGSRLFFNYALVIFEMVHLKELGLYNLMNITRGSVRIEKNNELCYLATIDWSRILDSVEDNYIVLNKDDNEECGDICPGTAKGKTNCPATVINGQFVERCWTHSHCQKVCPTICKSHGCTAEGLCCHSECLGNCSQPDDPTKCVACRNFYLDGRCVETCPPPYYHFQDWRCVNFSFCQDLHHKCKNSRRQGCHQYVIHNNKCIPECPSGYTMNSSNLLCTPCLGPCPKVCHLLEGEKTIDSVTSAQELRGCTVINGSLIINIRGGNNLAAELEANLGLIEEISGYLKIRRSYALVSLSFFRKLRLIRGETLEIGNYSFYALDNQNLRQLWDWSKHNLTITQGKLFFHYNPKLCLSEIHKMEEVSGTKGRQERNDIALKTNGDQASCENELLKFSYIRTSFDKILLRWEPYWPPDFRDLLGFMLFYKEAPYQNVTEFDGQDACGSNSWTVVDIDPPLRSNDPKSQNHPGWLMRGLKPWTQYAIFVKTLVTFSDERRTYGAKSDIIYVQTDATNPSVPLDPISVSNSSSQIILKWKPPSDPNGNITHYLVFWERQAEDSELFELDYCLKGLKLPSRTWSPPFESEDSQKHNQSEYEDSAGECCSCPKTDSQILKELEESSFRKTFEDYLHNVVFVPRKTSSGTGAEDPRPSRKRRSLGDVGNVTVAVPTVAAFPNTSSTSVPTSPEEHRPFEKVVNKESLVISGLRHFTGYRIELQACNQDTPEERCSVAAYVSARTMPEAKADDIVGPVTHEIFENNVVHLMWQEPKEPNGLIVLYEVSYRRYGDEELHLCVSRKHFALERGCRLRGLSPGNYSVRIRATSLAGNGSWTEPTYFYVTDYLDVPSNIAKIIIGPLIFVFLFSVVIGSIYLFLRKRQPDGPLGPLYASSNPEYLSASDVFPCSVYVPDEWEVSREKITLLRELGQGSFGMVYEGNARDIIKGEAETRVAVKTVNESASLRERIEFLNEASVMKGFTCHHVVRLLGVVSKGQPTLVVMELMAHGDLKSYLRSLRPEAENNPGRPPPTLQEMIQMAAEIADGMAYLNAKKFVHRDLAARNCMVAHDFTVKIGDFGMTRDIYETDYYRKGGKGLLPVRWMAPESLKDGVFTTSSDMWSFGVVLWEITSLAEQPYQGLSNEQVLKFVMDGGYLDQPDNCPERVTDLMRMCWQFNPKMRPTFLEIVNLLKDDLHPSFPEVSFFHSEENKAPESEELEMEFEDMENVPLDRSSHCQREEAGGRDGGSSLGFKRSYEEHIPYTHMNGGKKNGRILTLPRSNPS
UniProt P62993: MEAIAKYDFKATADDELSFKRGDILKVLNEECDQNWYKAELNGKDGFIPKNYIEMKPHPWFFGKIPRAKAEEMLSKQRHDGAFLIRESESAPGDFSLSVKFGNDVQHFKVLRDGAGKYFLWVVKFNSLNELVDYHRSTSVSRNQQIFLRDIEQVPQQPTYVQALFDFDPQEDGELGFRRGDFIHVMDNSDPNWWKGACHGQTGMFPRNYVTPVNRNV

These are yes or no findings as the source states them, for the method shown. In cells and extracts the contact can be indirect. Some binding calls cover weakened binding; strength is not graded here.

For this assay, the target named is human insulin receptor fused with Renilla luciferase 8 (human) (UniProt P06213). The assay is described as follows: FRET or BRET; BRET in real time in live HEK293 cells co-expressing hIR–Rluc8 (donor) and IRS1–YFP or Grb2–Venus (acceptor); cells in PBS, coelenterazine-h 5 uM; basal or stimulated with bovine insulin (100 nM or 0.001-10,000 nM); with or without pre-treatment with defatted camel milk or its fractions (30 min, 37°C). (In BRET a luciferase serves as donor, and the signal depends on an acceptor being close.)

On to “growth factor receptor-bound protein 2 fused with Venus (from UniProt P62993 1-217)”, for which the binding result is recorded as “binds”.
